According to the supplement of paper PMC8728848:
This is one part of the list.

Experiments:
Experiment in all cases: glycan array binding signal (z-score within array); higher = stronger binding
Conditions in all cases: glycan notation: IUPAC condensed, linker removed
GlcNAc(b1-3)Man = target: GlcNAc(b1-3)Man
Procedure, shortened: (§1)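 The binding signal is a Z-score computed within each array and averaged over linkers. Arrays of the same protein sequence at different concentrations or buffers were also averaged together. Data originate from 3228 arrays in the Consortium for Functional Glycomics database, kept only where the protein sequence was available.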

[1] = target: GlcNAc(b1-3)[GlcNAc(b1-4)][GlcNAc(b1-6)]GlcNAc
Procedure, shortened: as §1

[2] = target: GlcNAc(b1-3)[GlcNAc(b1-6)]Gal(b1-4)GlcNAc
Procedure, shortened: as §1

[3] = target: GlcNAc(b1-3)[GlcNAc(b1-6)]GalNAc
Procedure, shortened: as §1

[4] = target: GlcNAc(b1-4)Gal(b1-4)GlcNAc
Procedure, shortened: as §1

GlcNAc(b1-4)GlcNAc = target: GlcNAc(b1-4)GlcNAc
Procedure, shortened: as §1

[5] = target: GlcNAc(b1-4)GlcNAc(b1-4)GlcNAc
Procedure, shortened: as §1

[6] = target: GlcNAc(b1-4)GlcNAc(b1-4)GlcNAc(b1-4)GlcNAc(b1-4)GlcNAc
Procedure, shortened: as §1

[7] = target: GlcNAc(b1-4)GlcNAc(b1-4)GlcNAc(b1-4)GlcNAc(b1-4)GlcNAc(b1-4)GlcNAc
Procedure, shortened: as §1

[8] = target: GlcNAc(b1-4)[GlcNAc(b1-6)]GalNAc
Procedure, shortened: as §1

[9] = target: GlcNAc(b1-6)Gal(b1-4)GlcNAc
Procedure, shortened: as §1

GlcNAc(b1-6)GalNAc = target: GlcNAc(b1-6)GalNAc
Procedure, shortened: as §1

[10] = target: GlcNAc6S(b1-3)Gal(b1-4)GlcNAc
Procedure, shortened: as §1

Kdn(a2-3)Gal(b1-3)GalNAc = target: Kdn(a2-3)Gal(b1-3)GalNAc
Procedure, shortened: as §1

Kdn(a2-3)Gal(b1-3)GlcNAc = target: Kdn(a2-3)Gal(b1-3)GlcNAc
Procedure, shortened: as §1

Kdn(a2-3)Gal(b1-4)Glc = target: Kdn(a2-3)Gal(b1-4)Glc
Procedure, shortened: as §1

Kdn(a2-3)Gal(b1-4)GlcNAc = target: Kdn(a2-3)Gal(b1-4)GlcNAc
Procedure, shortened: as §1

[11] = target: Kdn(a2-3)Gal(b1-4)[Fuc(a1-3)]GlcNAc
Procedure, shortened: as §1

Kdn(a2-6)Gal(b1-4)GlcNAc = target: Kdn(a2-6)Gal(b1-4)GlcNAc
Procedure, shortened: as §1

[12] = target: Man(a1-2)Man(a1-2)Man(a1-3)Man
Procedure, shortened: as §1

[13] = target: Man(a1-2)Man(a1-2)Man(a1-6)[Man(a1-3)]Man
Procedure, shortened: as §1

Man(a1-2)Man(a1-3)Man = target: Man(a1-2)Man(a1-3)Man
Procedure, shortened: as §1

[14] = target: Man(a1-2)Man(a1-3)[Man(a1-2)Man(a1-6)]Man
Procedure, shortened: as §1

[15] = target: Man(a1-2)Man(a1-3)[Man(a1-2)Man(a1-6)]Man(a1-6)[Man(a1-2)Man(a1-2)Man(a1-3)]Man
Procedure, shortened: as §1

[16] = target: Man(a1-2)Man(a1-3)[Man(a1-2)Man(a1-6)]Man(a1-6)[Man(a1-2)Man(a1-2)Man(a1-3)]Man(b1-4)GlcNAc(b1-4)GlcNAc
Procedure, shortened: as §1

[17] = target: Man(a1-2)Man(a1-3)[Man(a1-6)]Man(a1-6)[Man(a1-2)Man(a1-3)]Man(b1-4)GlcNAc(b1-4)GlcNAc
Procedure, shortened: as §1

[18] = target: Man(a1-2)Man(a1-6)[Man(a1-3)]Man(a1-6)[Man(a1-2)Man(a1-2)Man(a1-3)]Man
Procedure, shortened: as §1

[19] = target: Man(a1-2)Man(a1-6)[Man(a1-3)]Man(a1-6)[Man(a1-2)Man(a1-2)Man(a1-3)]Man(b1-4)GlcNAc(b1-4)GlcNAc
Procedure, shortened: as §1

Man(a1-3)[Man(a1-6)]Man = target: Man(a1-3)[Man(a1-6)]Man
Procedure, shortened: as §1

[20] = target: Man(a1-3)[Man(a1-6)]Man(a1-6)[Man(a1-2)Man(a1-3)]Man(b1-4)GlcNAc(b1-4)GlcNAc
Procedure, shortened: as §1

[21] = target: Man(a1-3)[Man(a1-6)]Man(a1-6)[Man(a1-3)]Man
Procedure, shortened: as §1

[22] = target: Man(a1-3)[Man(a1-6)]Man(a1-6)[Man(a1-3)]Man(b1-4)GlcNAc(b1-4)GlcNAc
Procedure, shortened: as §1

[23] = target: Man(a1-3)[Man(a1-6)]Man(b1-4)GlcNAc(b1-4)GlcNAc
Procedure, shortened: as §1

[24] = target: Man(a1-3)[Man(a1-6)]Man(b1-4)GlcNAc(b1-4)[Fuc(a1-6)]GlcNAc
Procedure, shortened: as §1

Man(a1-6)Man = target: Man(a1-6)Man
Procedure, shortened: as §1

Man(b1-4)GlcNAc = target: Man(b1-4)GlcNAc
Procedure, shortened: as §1

MurNAc(b1-4)GlcNAc = target: MurNAc(b1-4)GlcNAc
Procedure, shortened: as §1

Neu5Ac(a2-3)Gal = target: Neu5Ac(a2-3)Gal
Procedure, shortened: as §1

B1: SJCP1531 (Schistosoma japonicum) (protein)
chain: MFKVRIINLVNISTVLLLINLLQTKSQVNVEQLVTVLEVNIKAQLKNKTTEVLVEWNPLYQDNSMPEYRKLLDETCKLFLPFVNEKVPPSTYGGECTNANFSEAPQDGSYSRVNAELRLIYKYSDNPQIQTDRLQDDLNDREEFITSESSFVAYNPKFTVKIEKLFIPISESQTTPPPTTAKNDASKKDDDDNGGEDSKAPIDTFAMTASGNKGKKDDDDNGGEDSKAPIDTFAMTASGSKDERSTWTIIGIITLVVLIFVVIGGGITVFVKRC
glycan array binding signal (z-score) (GlcNAc(b1-3)Man): 1.01
glycan array binding signal (z-score) [1]: -0.372
glycan array binding signal (z-score) [2]: 0.523
glycan array binding signal (z-score) [3]: 0.239
glycan array binding signal (z-score) [4]: -0.844
glycan array binding signal (z-score) (GlcNAc(b1-4)GlcNAc): -0.124
glycan array binding signal (z-score) [5]: -0.584
glycan array binding signal (z-score) [6]: -0.099
glycan array binding signal (z-score) [7]: -2.45
glycan array binding signal (z-score) [8]: -0.845
glycan array binding signal (z-score) [9]: -1.5
glycan array binding signal (z-score) (GlcNAc(b1-6)GalNAc): -0.143
glycan array binding signal (z-score) [10]: -0.221
glycan array binding signal (z-score) (Kdn(a2-3)Gal(b1-3)GalNAc): -0.79
glycan array binding signal (z-score) (Kdn(a2-3)Gal(b1-3)GlcNAc): 0.26
glycan array binding signal (z-score) (Kdn(a2-3)Gal(b1-4)Glc): -1.3
glycan array binding signal (z-score) (Kdn(a2-3)Gal(b1-4)GlcNAc): -0.129
glycan array binding signal (z-score) [11]: 0.747
glycan array binding signal (z-score) (Kdn(a2-6)Gal(b1-4)GlcNAc): -0.606
glycan array binding signal (z-score) [12]: -1.16
glycan array binding signal (z-score) [13]: -0.015
glycan array binding signal (z-score) (Man(a1-2)Man(a1-3)Man): 0.424
glycan array binding signal (z-score) [14]: -1.01
glycan array binding signal (z-score) [15]: -0.804
glycan array binding signal (z-score) [16]: -1.21
glycan array binding signal (z-score) [17]: -1.4
glycan array binding signal (z-score) [18]: -0.014
glycan array binding signal (z-score) [19]: -0.843
glycan array binding signal (z-score) (Man(a1-3)[Man(a1-6)]Man): 0.921
glycan array binding signal (z-score) [20]: -0.185
glycan array binding signal (z-score) [21]: -0.239
glycan array binding signal (z-score) [22]: -0.243
glycan array binding signal (z-score) [23]: -0.596
glycan array binding signal (z-score) [24]: 0.376
glycan array binding signal (z-score) (Man(a1-6)Man): -0.518
glycan array binding signal (z-score) (Man(b1-4)GlcNAc): 1.56
glycan array binding signal (z-score) (MurNAc(b1-4)GlcNAc): 0.723
glycan array binding signal (z-score) (Neu5Ac(a2-3)Gal): 0.951
